The target of this assay is T1, Myc-tagged wild-type MKS1 (human) (UniProt Q9NXB0).
T1 sequence: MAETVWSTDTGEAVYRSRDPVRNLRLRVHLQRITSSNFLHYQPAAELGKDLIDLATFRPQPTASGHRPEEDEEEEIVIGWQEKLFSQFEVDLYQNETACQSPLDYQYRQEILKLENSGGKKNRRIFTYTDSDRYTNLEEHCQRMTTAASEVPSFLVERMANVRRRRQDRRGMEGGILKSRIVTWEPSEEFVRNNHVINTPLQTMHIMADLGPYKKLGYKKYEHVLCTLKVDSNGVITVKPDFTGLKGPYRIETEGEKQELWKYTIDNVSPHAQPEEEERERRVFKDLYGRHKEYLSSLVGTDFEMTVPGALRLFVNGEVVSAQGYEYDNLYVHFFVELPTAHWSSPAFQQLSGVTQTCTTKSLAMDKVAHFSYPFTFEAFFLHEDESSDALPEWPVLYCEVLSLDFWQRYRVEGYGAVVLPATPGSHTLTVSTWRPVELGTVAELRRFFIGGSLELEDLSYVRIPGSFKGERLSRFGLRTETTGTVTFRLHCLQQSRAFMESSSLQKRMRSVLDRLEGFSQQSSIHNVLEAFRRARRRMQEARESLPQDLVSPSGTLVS
The assay can be described thus: co-IP; Myc-MKS1 (1.5 ug) and HA-B9D2 (1.0 ug) vectors co-transfected into HEK293T, lysed 36 h after transfection; anti-Myc magnetic beads at 4 C for 4-6 h, three washes, eluted with 3x Myc peptide; blots with anti-Myc and anti-HA.

No constants are given. Whether binding was seen depends on the method and setting. In cells and extracts the contact can be indirect. Some results given as binding are weak or reduced against the parent protein; the word gives no strength. Tags and fused reporters may be left off the sequences shown.

These results are taken from PMC8963843.

B1: HA-tagged B9D2 (protein, UniProt Q9BPU9 1-175)
chain: MAEVHVIGQIIGASGFSESSLFCKWGIHTGAAWKLLSGVREGQTQVDTPQIGDMAYWSHPIDLHFATKGLQGWPRLHFQVWSQDSFGRCQLAGYGFCHVPSSPGTHQLACPTWRPLGSWREQLARAFVGGGPQLLHGDTIYSGADRYRLHTAAGGTVHLEIGLLLRNFDRYGVEC
As to B1, the binding result is given as “binds”.
